Tested on: BAF complex subunits and histone proteins
Test: Mass spectrometry proteomics of purified HA-SS18 WT and HA-SS18-SSX1 complexes (Tables 5A-5E)
Set-up: species or system human
Conditions: HA-SS18WT_CHR_peptides: protein identified in HA-SS18 WT BAF complex purification from nuclease-treated solubilized chromatin (CHR), HEK-293T

Row | Molecule | Total (total peptides) | Unique (unique peptides)
1 | UBA1 (protein, UniProt P22314 2-1058, looked up) Ubiquitin-like …: SSSPLSKKRRVSGPDPKPGSNCSPAQSVLSEVPSVPTNGMAKNGSEADIDEGLYSRQLYVLGHEAMKRLQTSSVLVSGLRGLGVEIAKNIILGGVKAVTLHDQGTAQWADLSSQFYLREEDIGKNRAEVSQPRLAELNSYVPVTAYTGPLVEDFLSGFQVVVLTNTPLEDQLRVGEFCHNRGIKLVVADTRGLFGQLFCDFGEEMILTDSNGEQPLSAMVSMVTKDNPGVVTCLDEARHGFESGDFVSFSEVQGMVELNGNQPMEIKVLGPYTFSICDTSNFSDYIRGGIVSQVKVPKKISFKSLVASLAEPDFVVTDFAKFSRPAQLHIGFQALHQFCAQHGRPPRPRNEEDAAELVALAQAVNARALPAVQQNNLDEDLIRKLAYVAAGDLAPINAFIGGLAAQEVMKACSGKFMPIMQWLYFDALECLPEDKEVLTEDKCLQRQNRYDGQVAVFGSDLQEKLGKQKYFLVGAGAIGCELLKNFAMIGLGCGEGGEIIVTDMDTIEKSNLNRQFLFRPWDVTKLKSDTAAAAVRQMNPHIRVTSHQNRVGPDTERIYDDDFFQNLDGVANALDNVDARMYMDRRCVYYRKPLLESGTLGTKGNVQVVIPFLTESYSSSQDPPEKSIPICTLKNFPNAIEHTLQWARDEFEGLFKQPAENVNQYLTDPKFVERTLRLAGTQPLEVLEAVQRSLVLQRPQTWADCVTWACHHWHTQYSNNIRQLLHNFPPDQLTSSGAPFWSGPKRCPHPLTFDVNNPLHLDYVMAAANLFAQTYGLTGSQDRAAVATFLQSVQVPEFTPKSGVKIHVSDQELQSANASVDDSRLEELKATLPSPDKLPGFKMYPIDFEKDDDSNFHMDFIVAASNLRAENYDIPSADRHKSKLIAGKIIPAIATTTAAVVGLVCLELYKVVQGHRQLDSYKNGFLNLALPFFGFSEPLAAPRHQYYNQEWTLWDRFEVQGLQPNGEEMTLKQFLDYFKTEHKLEITMLSQGVSMLYSFFMPAAKLKERLDQPMTEIVSRVSKRKLGRHVRALVLELCCNDESGEDVEVPYVRYTIR | 1 | 1

Same assay, conditions: HA-SS18WT_NE_peptides: HA-SS18 WT complexes purified from nuclear extract (NE), HEK-293T; label = protein identified (Gene Symbol)

Row | Molecule | Total (peptides) | Unique (peptides)
2 | ABCB7 (protein, UniProt O75027 23-752, looked up) Iron-sulfur clusters …: HSAILIRPLVSVSGSGPQWRPHQLGALGTARAYQIPESLKSITWQRLGKGNSGQFLDAAKALQVWPLIEKRTCWHGHAGGGLHTDPKEGLKDVDTRKIIKAMLSYVWPKDRPDLRARVAISLGFLGGAKAMNIVVPFMFKYAVDSLNQMSGNMLNLSDAPNTVATMATAVLIGYGVSRAGAAFFNEVRNAVFGKVAQNSIRRIAKNVFLHLHNLDLGFHLSRQTGALSKAIDRGTRGISFVLSALVFNLLPIMFEVMLVSGVLYYKCGAQFALVTLGTLGTYTAFTVAVTRWRTRFRIEMNKADNDAGNAAIDSLLNYETVKYFNNERYEAQRYDGFLKTYETASLKSTSTLAMLNFGQSAIFSVGLTAIMVLASQGIVAGTLTVGDLVMVNGLLFQLSLPLNFLGTVYRETRQALIDMNTLFTLLKVDTQIKDKVMASPLQITPQTATVAFDNVHFEYIEGQKVLSGISFEVPAGKKVAIVGGSGSGKSTIVRLLFRFYEPQKGSIYLAGQNIQDVSLESLRRAVGVVPQDAVLFHNTIYYNLLYGNISASPEEVYAVAKLAGLHDAILRMPHGYDTQVGERGLKLSGGEKQRVAIARAILKDPPVILYDEATSSLDSITEETILGAMKDVVKHRTSIFIAHRLSTVVDADEIIVLDQGKVAERGTHHGLLANPHSIYSEMWHTQSSRVQNHDNPKWEAKKENISKEEERKKLQEEIVNSVKGCGNCSC | 4 | 3
3 | NSF (protein, UniProt P46459 1-744, looked up) Vesicle-fusing ATPase: MAGRSMQAARCPTDELSLTNCAVVNEKDFQSGQHVIVRTSPNHRYTFTLKTHPSVVPGSIAFSLPQRKWAGLSIGQEIEVSLYTFDKAKQCIGTMTIEIDFLQKKSIDSNPYDTDKMAAEFIQQFNNQAFSVGQQLVFSFNEKLFGLLVKDIEAMDPSILKGEPATGKRQKIEVGLVVGNSQVAFEKAENSSLNLIGKAKTKENRQSIINPDWNFEKMGIGGLDKEFSDIFRRAFASRVFPPEIVEQMGCKHVKGILLYGPPGCGKTLLARQIGKMLNAREPKVVNGPEILNKYVGESEANIRKLFADAEEEQRRLGANSGLHIIIFDEIDAICKQRGSMAGSTGVHDTVVNQLLSKIDGVEQLNNILVIGMTNRPDLIDEALLRPGRLEVKMEIGLPDEKGRLQILHIHTARMRGHQLLSADVDIKELAVETKNFSGAELEGLVRAAQSTAMNRHIKASTKVEVDMEKAESLQVTRGDFLASLENDIKPAFGTNQEDYASYIMNGIIKWGDPVTRVLDDGELLVQQTKNSDRTPLVSVLLEGPPHSGKTALAAKIAEESNFPFIKICSPDKMIGFSETAKCQAMKKIFDDAYKSQLSCVVVDDIERLLDYVPIGPRFSNLVLQALLVLLKKAPPQGRKLLIIGTTSRKDVLQEMEMLNAFSTTIHVPNIATGEQLLEALELLGNFKDKERTTIAQQVKGKKVWIGIKKLLMLIEMSLQMDPEYRVRKFLALLREEGASPLDFD | 4 | 3
4 | SPG7 (protein, UniProt Q9UQ90 106-795, looked up) Mitochondrial inner membrane …: LKQKNKEKDKSKGKAPEEDEEERRRRERDDQMYRERLRTLLVIAVVMSLLNALSTSGGSISWNDFVHEMLAKGEVQRVQVVPESDVVEVYLHPGAVVFGRPRLALMYRMQVANIDKFEEKLRAAEDELNIEAKDRIPVSYKRTGFFGNALYSVGMTAVGLAILWYVFRLAGMTGREGGFSAFNQLKMARFTIVDGKMGKGVSFKDVAGMHEAKLEVREFVDYLKSPERFLQLGAKVPKGALLLGPPGCGKTLLAKAVATEAQVPFLAMAGPEFVEVIGGLGAARVRSLFKEARARAPCIVYIDEIDAVGKKRSTTMSGFSNTEEEQTLNQLLVEMDGMGTTDHVIVLASTNRADILDGALMRPGRLDRHVFIDLPTLQERREIFEQHLKSLKLTQSSTFYSQRLAELTPGFSGADIANICNEAALHAAREGHTSVHTLNFEYAVERVLAGTAKKSKILSKEEQKVVAFHESGHALVGWMLEHTEAVMKVSITPRTNAALGFAQMLPRDQHLFTKEQLFERMCMALGGRASEALSFNEVTSGAQDDLRKVTRIAYSMVKQFGMAPGIGPISFPEAQEGLMGIGRRPFSQGLQQMMDHEARLLVAKAYRHTEKVLQDNLDKLQALANALLEKEVINYEDIEALIGPPPHGPKKMIAPQRWIDAQREKQDLGEEETEETQQPPLGGEEPTWPK | 3 | 3
5 | MYL12A (protein, UniProt P19105 1-171, looked up) Myosin regulatory light chain …: MSSKRTKTKTKKRPQRATSNVFAMFDQSQIQEFKEAFNMIDQNRDGFIDKEDLHDMLASLGKNPTDEYLDAMMNEAPGPINFTMFLTMFGEKLNGTDPEDVIRNAFACFDEEATGTIQEDYLRELLTTMGDRFTDEEVDELYREAPIDKKGNFNYIEFTRILKHGAKDKDD | 3 | 3
6 | KHSRP (protein, UniProt Q92945 2-711, looked up) Far upstream element-binding …: SDYSTGGPPPGPPPPAGGGGGAGGAGGGPPPGPPGAGDRGGGGPGGGGPGGGSAGGPSQPPGGGGPGIRKDAFADAVQRARQIAAKIGGDAATTVNNSTPDFGFGGQKRQLEDGDQPESKKLASQGDSISSQLGPIHPPPRTSMTEEYRVPDGMVGLIIGRGGEQINKIQQDSGCKVQISPDSGGLPERSVSLTGAPESVQKAKMMLDDIVSRGRGGPPGQFHDNANGGQNGTVQEIMIPAGKAGLVIGKGGETIKQLQERAGVKMILIQDGSQNTNVDKPLRIIGDPYKVQQACEMVMDILRERDQGGFGDRNEYGSRIGGGIDVPVPRHSVGVVIGRSGEMIKKIQNDAGVRIQFKQDDGTGPEKIAHIMGPPDRCEHAARIINDLLQSLRSGPPGPPGGPGMPPGGRGRGRGQGNWGPPGGEMTFSIPTHKCGLVIGRGGENVKAINQQTGAFVEISRQLPPNGDPNFKLFIIRGSPQQIDHAKQLIEEKIEGPLCPVGPGPGGPGPAGPMGPFNPGPFNQGPPGAPPHAGGPPPHQYPPQGWGNTYPQWQPPAPHDPSKAAAAAADPNAAWAAYYSHYYQQPPGPVPGPAPAPAAPPAQGEPPQPPPTGQSDYTKAWEEYYKKIGQQPQQPGAPPQQDYTKAWEEYYKKQAQVATGGGPGAPPGSQPDYSAAWAEYYRQQAAYYGQTPGPGGPQPPPTQQGQQQAQ | 3 | 3

Reference: US20250283871A1, “COMPOSITIONS AND METHODS FOR MODULATING THE INTERACTION BETWEEN SS18-SSX FUSION ONCOPROTEIN AND NUCLEOSOMES” (Dana-Farber Cancer Institute, Inc., priority 2020, published 2025)
